No constants are given. Whether binding was seen depends on the method and setting.
What was measured:
Assay in all cases: AUC; both purified
[1] = target: Ig V domain of hTIM-3 (human) (UniProt Q8TDQ0)
[2] = target: Ig V domain of human T-cell immunoglobulin and mucin domain protein 1 (hTIM-1) (human) (UniProt Q96D42)
[3] = target: Ig V domain of hTIM-4 (human) (UniProt Q96H15)

Sequences of proteins named here, by UniProt entry; tags and fusion partners are left off. Residues count along the entry.
UniProt Q8TDQ0, residues 22-124: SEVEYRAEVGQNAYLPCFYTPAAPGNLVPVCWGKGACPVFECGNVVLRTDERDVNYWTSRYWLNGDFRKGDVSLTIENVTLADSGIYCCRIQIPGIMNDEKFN

Ig V domain of hTIM-3 (from UniProt Q8TDQ0 22-124) (domain or fragment)
binding [1]: no binding (tested: A280nm absorption of about 0.8)

B1: Ig V domain of human T-cell immunoglobulin and mucin domain protein 1 (hTIM-1) (domain or fragment, UniProt Q96D42 22-127)
chain: VKVGGEAGPSVTLPCHYSGAVTSMCWNRGSCSLFTCQNGIVWTNGTHVTYRKDTRYKLLGDLSRRDVSLTIENTAVSDSGVYCCRVEHRGWFNDMKITVSLEIVPP
binding [2]: no binding (tested: A280nm absorption of about 0.8)

B2: Ig V domain of hTIM-4 (domain or fragment, UniProt Q96H15 22-134)
chain: VTSETVVTEVLGHRVTLPCLYSSWSHNSNSMCWGKDQCPYSGCKEALIRTDGMRVTSRKSAKYRLQGTIPRGDVSLTILNPSESDSGVYCCRIEVPGWFNDVKINVRLNLQRA
binding [3]: no binding (tested: A280nm absorption of about 0.8)

From PMC4624681 (2015)
